Measurements published in the supplement of paper PMC7877785.
± gives the uncertainty stated by the source. Many of these values have a large error.

Test: self-splicing fitness, log relative to wild type (ln ratio); higher = more splicing; Tetrahymena group I intron in knt gene, E. coli kanamycin selection, DiMSum; sequences stand for … in CUCUCU…GGAGGGAAAAGUUAUCAGGCAUGCACCUGGUAGCUAGUCUUUAAACCAAUAGAUUGCAUCGGUUUAAAAGGCAAGACCGUCAAAUUGCGGGAAAGGGGUCAACAGCCGUUCAGUACCAAGUCUCAGGGGAAACUUUGAGAUGGCCUUGCAAAGGGUAUGGUAAUAAGCUGACGGACAUGGUCCUAACCACGCAGCCAAGUCCUAAGUCAACAGAUCUUCUGUUGAUAUGGAUGCAGUUCACAGACUAAAUGUCGGUCGGGGAAGAUGUAUUCUUCUCAUAAGAUAUAGUCGGACCUCUCCUUAAUGGGAGCUAGCGGAUGAAGUGAUGCAACACUGGAGCCGCUGGGAACUAAUUUGUAUGCGAAAGUAUAUUGAUUAGUUUUGGAGUACUCGUGGUCG
Outline: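 Library with all eight P1ex-region intron nucleotides randomised, intron inside the knt kanamycin-resistance gene on pET-22b(+), in E. coli BL21(DE3). Cells grew overnight at 37°C or 30°C on LB agar with or without 25 μg/mL kanamycin (plus 100 μg/mL carbenicillin, 50 μM IPTG, 0.2% rhamnose), in six replicate transformations. Pooled colonies were amplicon-sequenced on Illumina HiSeq 2500. DiMSum fitness is the error-weighted combination of wild-type-normalised replicate fold changes, kanamycin versus none.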

Row | Sequence | self-splicing fitness (ln) (37 °C) | self-splicing fitness (ln) (30 °C)
1 | CUUGAGCAAUAUUACGCACA | -2.13 ± 0.56 | –
2 | CUGUAGCAAUAUUACGCAAC | – | -4.16 ± 0.73
3 | CGGAAGCAAUAUUACGAUAU | – | -3.67 ± 0.52
4 | AUAUAGCAAUAUUACGGAAA | – | -1.74 ± 0.84
5 | UGGUAGCAAUAUUACGAGAU | – | -0.998 ± 0.5
6 | UAAGAGCAAUAUUACGACCA | -1.29 ± 1.2 | -2.43 ± 0.54
7 | UCAAAGCAAUAUUACGAUGU | -0.341 ± 0.081 | -1.09 ± 0.074
8 | AACUAGCAAUAUUACGACCU | 0.541 ± 0.11 | -0.168 ± 0.083
9 | UGAUAGCAAUAUUACGGUCU | -0.257 ± 0.15 | -0.913 ± 0.12
10 | GUAUAGCAAUAUUACGCUCA | – | -1.9 ± 0.66
11 | CACGAGCAAUAUUACGAGUC | – | -4.87 ± 1
12 | AGCGAGCAAUAUUACGCCGU | -1.24 ± 0.34 | -3.88 ± 1.1
13 | UUCCAGCAAUAUUACGUUCC | – | -4.67 ± 0.72
14 | UCCGAGCAAUAUUACGAGCU | – | -3.69 ± 0.52
15 | GGGGAGCAAUAUUACGCAUC | -1.81 ± 0.59 | -2.11 ± 0.59
16 | UCAGAGCAAUAUUACGCCCG | -1.37 ± 0.65 | –
17 | AUGCAGCAAUAUUACGUCCC | -1.89 ± 0.52 | -1.53 ± 0.42
18 | UAGUAGCAAUAUUACGGUUC | -2.04 ± 0.56 | -3.63 ± 0.59
19 | CGCUAGCAAUAUUACGCUGU | – | -4.48 ± 0.72
20 | CUCGAGCAAUAUUACGAAUU | -3.05 ± 0.6 | -5.36 ± 0.71
21 | GGAUAGCAAUAUUACGAAUA | – | -2.45 ± 0.5
22 | CCGUAGCAAUAUUACGGAUU | – | -5.12 ± 0.72
23 | CGACAGCAAUAUUACGGAUC | -2.64 ± 1.1 | –
24 | GAAGAGCAAUAUUACGACCG | -3.55 ± 0.73 | –

Part of the list above, with tabs:
Row	Sequence	self-splicing fitness (ln) (37 °C)	self-splicing fitness (ln) (30 °C)
21	GGAUAGCAAUAUUACGAAUA	–	-2.45 ± 0.5
22	CCGUAGCAAUAUUACGGAUU	–	-5.12 ± 0.72
23	CGACAGCAAUAUUACGGAUC	-2.64 ± 1.1	–

Remaining list, next part

Row | Sequence | self-splicing fitness (ln) (37 °C) | self-splicing fitness (ln) (30 °C)
25 | GGGAAGCAAUAUUACGUACC | -1.77 ± 0.58 | -3.65 ± 0.53
26 | CCAUAGCAAUAUUACGAAAU | -3.14 ± 0.74 | –
27 | UCCUAGCAAUAUUACGUCAA | – | -3.78 ± 0.6
28 | CUGGAGCAAUAUUACGCACC | -0.961 ± 0.69 | -2.71 ± 0.65
29 | CCUUAGCAAUAUUACGAUAU | -1.98 ± 0.53 | -2.62 ± 0.62
30 | GACGAGCAAUAUUACGAAUC | – | -3.06 ± 0.79
31 | UCGGAGCAAUAUUACGCGCA | -0.494 ± 0.51 | –
32 | AGCGAGCAAUAUUACGGGAC | – | -4.75 ± 0.72
33 | CUGCAGCAAUAUUACGCACA | -1.48 ± 0.19 | -2.82 ± 0.19
34 | UACUAGCAAUAUUACGAAAG | -1.93 ± 0.13 | -2.94 ± 0.11
35 | GACAAGCAAUAUUACGGAUG | -1.75 ± 0.12 | -2.92 ± 0.11
36 | AGCAAGCAAUAUUACGGAUC | -1.08 ± 0.16 | -2.73 ± 0.17
37 | UGUGAGCAAUAUUACGUCGC | -1.32 ± 0.54 | –
38 | UUAUAGCAAUAUUACGGGAA | -1.26 ± 0.28 | -1.59 ± 0.29
39 | GUGUAGCAAUAUUACGGCUG | -1.28 ± 0.25 | -3.23 ± 0.23
40 | CGCGAGCAAUAUUACGACGA | – | -3.08 ± 0.76
41 | CGGGAGCAAUAUUACGCGAU | – | -4.83 ± 0.72
42 | UUAUAGCAAUAUUACGAAGA | – | -2.71 ± 0.63
43 | GUCUAGCAAUAUUACGCCGC | -2.68 ± 0.55 | –
44 | CCUUAGCAAUAUUACGAACU | -2 ± 0.64 | -4.05 ± 0.72
45 | UGUCAGCAAUAUUACGAGAC | – | -4.95 ± 0.51
46 | UAGCAGCAAUAUUACGCUUC | -2.25 ± 0.33 | -3.05 ± 0.34
47 | AGGAAGCAAUAUUACGCGGC | – | -3.96 ± 1
